# Results published in the supplement of paper PMC8728848.
# The list shows a part of the results.
# B1: Tp0751, 83732 (protein)
# chain: MSYYHHHHHHLESTSLYKKAGFQHGHVPPRRIPPHDTFGALPTAALPSNARDTAAHPSDTADNTSGSSTTTDPRSHGNAPPAPVGGAAQTHTQPPVQTAMRIALWNRATHGEQGALQHLLAGLWIQTEISPNSGDIHPLLFFDREHAEITFSRASVQEIFLVDSAHTHRKTVSFLTRNTAISSIRRRLEVTFESHEVIHVRAVEDVARLKIGSTSMWDGQYTRYHAGPASAPSP
# What was measured:
# Test in all cases: glycan array binding signal (z-score within array); higher = stronger binding
# Details in all cases: glycan notation: IUPAC condensed, linker removed
# [1] = target: Gal(b1-2)Gal
# Summary of the method: (§1)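 The Consortium for Functional Glycomics database supplied 3228 glycan arrays, of which those lacking an available protein sequence were dropped. The binding signal, a within-array Z-score, was averaged across arrays of the same protein sequence and across linkers. Negative scores can be read as non-binding.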
# [2] = target: Gal(b1-3)Gal
# Summary of the method: as §1
# [3] = target: Gal(b1-3)Gal(b1-4)GlcNAc
# Summary of the method: as §1
# [4] = target: Gal(b1-3)GalNAc
# Summary of the method: as §1
# [5] = target: Gal(b1-3)GalNAc(a1-3)[Fuc(a1-2)]Gal(b1-4)Glc
# Summary of the method: as §1
# [6] = target: Gal(b1-3)GalNAc(a1-3)[Fuc(a1-2)]Gal(b1-4)GlcNAc
# Summary of the method: as §1
# [7] = target: Gal(b1-3)GalNAc(b1-3)Gal
# Summary of the method: as §1
# [8] = target: Gal(b1-3)GalNAc(b1-3)Gal(a1-4)Gal(b1-4)Glc
# Summary of the method: as §1
# [9] = target: Gal(b1-3)GalNAc(b1-4)Gal(b1-4)Glc
# Summary of the method: as §1
# [10] = target: Gal(b1-3)GalNAc(b1-4)[Neu5Ac(a2-3)]Gal(b1-4)Glc
# Summary of the method: as §1
# [11] = target: Gal(b1-3)GlcNAc
# Summary of the method: as §1
# [12] = target: Gal(b1-3)GlcNAc(a1-3)Gal(b1-4)GlcNAc
# Summary of the method: as §1
# [13] = target: Gal(b1-3)GlcNAc(a1-6)Gal(b1-4)GlcNAc
# Summary of the method: as §1
# [14] = target: Gal(b1-3)GlcNAc(b1-2)Man
# Summary of the method: as §1
# [15] = target: Gal(b1-3)GlcNAc(b1-2)Man(a1-3)[Gal(b1-3)GlcNAc(b1-2)Man(a1-6)]Man(b1-4)GlcNAc(b1-4)GlcNAc
# Summary of the method: as §1
# [16] = target: Gal(b1-3)GlcNAc(b1-2)Man(a1-3)[Gal(b1-3)GlcNAc(b1-2)Man(a1-6)]Man(b1-4)GlcNAc(b1-4)[Fuc(a1-6)]GlcNAc
# Summary of the method: as §1
# [17] = target: Gal(b1-3)GlcNAc(b1-2)Man(a1-3)[GlcNAc(b1-4)][Gal(b1-3)GlcNAc(b1-2)Man(a1-6)]Man(b1-4)GlcNAc(b1-4)GlcNAc
# Summary of the method: as §1
# [18] = target: Gal(b1-3)GlcNAc(b1-2)[Gal(b1-3)GlcNAc(b1-6)]Man(a1-6)[Gal(b1-3)GlcNAc(b1-2)Man(a1-3)]Man(b1-4)GlcNAc(b1-4)GlcNAc
# Summary of the method: as §1
# [19] = target: Gal(b1-3)GlcNAc(b1-3)Gal(b1-3)GlcNAc
# Summary of the method: as §1
# [20] = target: Gal(b1-3)GlcNAc(b1-3)Gal(b1-4)Glc
# Summary of the method: as §1
# [21] = target: Gal(b1-3)GlcNAc(b1-3)Gal(b1-4)GlcNAc
# Summary of the method: as §1
# [22] = target: Gal(b1-3)GlcNAc(b1-3)Gal(b1-4)GlcNAc(b1-2)Man(a1-3)[Gal(b1-3)GlcNAc(b1-3)Gal(b1-4)GlcNAc(b1-2)Man(a1-6)]Man(b1-4)GlcNAc(b1-4)GlcNAc
# Summary of the method: as §1
# [23] = target: Gal(b1-3)GlcNAc(b1-3)Gal(b1-4)GlcNAc(b1-2)[Gal(b1-3)GlcNAc(b1-3)Gal(b1-4)GlcNAc(b1-6)]Man(a1-6)[Gal(b1-3)GlcNAc(b1-3)Gal(b1-4)GlcNAc(b1-2)Man(a1-3)]Man(b1-4)GlcNAc(b1-4)[Fuc(a1-6)]GlcNAc
# Summary of the method: as §1
# [24] = target: Gal(b1-3)GlcNAc(b1-3)Gal(b1-4)GlcNAc(b1-3)Gal(b1-4)GlcNAc(b1-2)[Gal(b1-3)GlcNAc(b1-3)Gal(b1-4)GlcNAc(b1-3)Gal(b1-4)GlcNAc(b1-6)]Man(a1-6)[Gal(b1-3)GlcNAc(b1-3)Gal(b1-4)GlcNAc(b1-3)Gal(b1-4)GlcNAc(b1-2)Man(a1-3)]Man(b1-4)GlcNAc(b1-4)[Fuc(a1-6)]GlcNAc
# Summary of the method: as §1
# [25] = target: Gal(b1-3)GlcNAc(b1-3)Gal(b1-4)GlcNAc(b1-6)[Gal(b1-3)GlcNAc(b1-3)]Gal(b1-4)Glc
# Summary of the method: as §1
# [26] = target: Gal(b1-3)GlcNAc(b1-3)Gal(b1-4)[Fuc(a1-3)]GlcNAc(b1-6)[Gal(b1-3)GlcNAc(b1-3)]Gal(b1-4)Glc
# Summary of the method: as §1
# [27] = target: Gal(b1-3)GlcNAc(b1-3)GalNAc
# Summary of the method: as §1
# [28] = target: Gal(b1-3)GlcNAc(b1-6)Gal(b1-4)GlcNAc
# Summary of the method: as §1
# [29] = target: Gal(b1-3)GlcNAc(b1-6)GalNAc
# Summary of the method: as §1
# [30] = target: Gal(b1-3)GlcNAc(b1-6)[Gal(b1-3)]GalNAc
# Summary of the method: as §1
# [31] = target: Gal(b1-3)GlcNAc6S
# Summary of the method: as §1
# [32] = target: Gal(b1-3)[Fuc(a1-4)]GlcNAc
# Summary of the method: as §1
# [33] = target: Gal(b1-3)[Fuc(a1-4)]GlcNAc(b1-2)Man
# Summary of the method: as §1
# [34] = target: Gal(b1-3)[Fuc(a1-4)]GlcNAc(b1-2)Man(a1-3)[Gal(b1-3)[Fuc(a1-4)]GlcNAc(b1-2)Man(a1-6)]Man(b1-4)GlcNAc(b1-4)[Fuc(a1-6)]GlcNAc
# Summary of the method: as §1
# [35] = target: Gal(b1-3)[Fuc(a1-4)]GlcNAc(b1-3)Gal(b1-3)[Fuc(a1-4)]GlcNAc
# Summary of the method: as §1
# [36] = target: Gal(b1-3)[Fuc(a1-4)]GlcNAc(b1-3)Gal(b1-4)GlcNAc
# Summary of the method: as §1
# [37] = target: Gal(b1-3)[Fuc(a1-4)]GlcNAc(b1-3)Gal(b1-4)[Fuc(a1-3)]GlcNAc
# Summary of the method: as §1
# [38] = target: Gal(b1-3)[Fuc(a1-4)]GlcNAc(b1-6)GalNAc
# Summary of the method: as §1
# [39] = target: Gal(b1-3)[GlcNAc(b1-6)]GalNAc
# Summary of the method: as §1
# [40] = target: Gal(b1-3)[Neu5Ac(a2-6)]GalNAc
# Summary of the method: as §1
# [41] = target: Gal(b1-3)[Neu5Ac(a2-6)]GlcNAc(b1-4)Gal(b1-4)Glc
# Summary of the method: as §1
# [42] = target: Gal(b1-3)[Neu5Ac(b2-6)]GalNAc
# Summary of the method: as §1
# [43] = target: Gal(b1-4)Gal
# Summary of the method: as §1
# [44] = target: Gal(b1-4)GalNAc(a1-3)[Fuc(a1-2)]Gal(b1-4)GlcNAc
# Summary of the method: as §1
# [45] = target: Gal(b1-4)GalNAc(b1-3)[Fuc(a1-2)]Gal(b1-4)GlcNAc
# Summary of the method: as §1
binder,measurement,setting,value
B1,glycan array binding signal (z-score),[1],2.31
same,glycan array binding signal (z-score),[2],0.017
same,glycan array binding signal (z-score),[3],-0.423
same,glycan array binding signal (z-score),[4],-0.193
same,glycan array binding signal (z-score),[5],-0.352
same,glycan array binding signal (z-score),[6],-0.541
same,glycan array binding signal (z-score),[7],-0.75
same,glycan array binding signal (z-score),[8],-0.679
same,glycan array binding signal (z-score),[9],-0.667
same,glycan array binding signal (z-score),[10],-0.127
same,glycan array binding signal (z-score),[11],-0.323
same,glycan array binding signal (z-score),[12],-0.151
same,glycan array binding signal (z-score),[13],-0.141
same,glycan array binding signal (z-score),[14],-0.234
same,glycan array binding signal (z-score),[15],-0.278
same,glycan array binding signal (z-score),[16],-0.013
same,glycan array binding signal (z-score),[17],-0.054
same,glycan array binding signal (z-score),[18],-0.217
same,glycan array binding signal (z-score),[19],-0.474
same,glycan array binding signal (z-score),[20],0.067
same,glycan array binding signal (z-score),[21],-0.382
same,glycan array binding signal (z-score),[22],-0.087
same,glycan array binding signal (z-score),[23],1.41
same,glycan array binding signal (z-score),[24],-0.07
same,glycan array binding signal (z-score),[25],0.04
same,glycan array binding signal (z-score),[26],-0.401
same,glycan array binding signal (z-score),[27],-0.782
same,glycan array binding signal (z-score),[28],-0.428
same,glycan array binding signal (z-score),[29],-0.077
same,glycan array binding signal (z-score),[30],-0.35
same,glycan array binding signal (z-score),[31],0.206
same,glycan array binding signal (z-score),[32],-0.004
same,glycan array binding signal (z-score),[33],-0.163
same,glycan array binding signal (z-score),[34],-0.273
same,glycan array binding signal (z-score),[35],-0.323
same,glycan array binding signal (z-score),[36],-0.193
same,glycan array binding signal (z-score),[37],-0.612
same,glycan array binding signal (z-score),[38],-0.629
same,glycan array binding signal (z-score),[39],-0.373
same,glycan array binding signal (z-score),[40],-0.43
same,glycan array binding signal (z-score),[41],0.263
same,glycan array binding signal (z-score),[42],-0.271
same,glycan array binding signal (z-score),[43],-0.525
same,glycan array binding signal (z-score),[44],-0.503
same,glycan array binding signal (z-score),[45],-0.474
